Laboratory results from the supplement of paper PMC12819154, “High-throughput peptide-centric local stability assay extends protein–ligand identification to membrane proteins, tissues and bacteria” (Nature Structural & Molecular Biology, 2025).
The other results are listed elsewhere or left out. Small differences around the control level are noise.

By UniProt entry, the sequences of proteins in these tests, tags left out. Where a name states a change or a piece, a line headed by the entry shows the natural chain unless it says otherwise.
UniProt Q99N85: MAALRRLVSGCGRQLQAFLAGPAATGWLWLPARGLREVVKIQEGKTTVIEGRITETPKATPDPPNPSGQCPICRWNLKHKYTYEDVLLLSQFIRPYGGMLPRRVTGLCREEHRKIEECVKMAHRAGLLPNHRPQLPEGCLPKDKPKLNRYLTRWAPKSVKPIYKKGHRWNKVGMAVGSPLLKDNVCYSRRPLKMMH
UniProt Q9CPY1: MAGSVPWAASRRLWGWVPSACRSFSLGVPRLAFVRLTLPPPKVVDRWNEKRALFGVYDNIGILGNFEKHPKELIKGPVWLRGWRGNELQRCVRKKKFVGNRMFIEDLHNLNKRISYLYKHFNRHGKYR
UniProt Q9CPY4: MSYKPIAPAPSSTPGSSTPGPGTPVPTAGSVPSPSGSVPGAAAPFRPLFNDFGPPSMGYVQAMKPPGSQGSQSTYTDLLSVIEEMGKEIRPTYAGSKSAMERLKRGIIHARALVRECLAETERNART
UniProt Q99MN9: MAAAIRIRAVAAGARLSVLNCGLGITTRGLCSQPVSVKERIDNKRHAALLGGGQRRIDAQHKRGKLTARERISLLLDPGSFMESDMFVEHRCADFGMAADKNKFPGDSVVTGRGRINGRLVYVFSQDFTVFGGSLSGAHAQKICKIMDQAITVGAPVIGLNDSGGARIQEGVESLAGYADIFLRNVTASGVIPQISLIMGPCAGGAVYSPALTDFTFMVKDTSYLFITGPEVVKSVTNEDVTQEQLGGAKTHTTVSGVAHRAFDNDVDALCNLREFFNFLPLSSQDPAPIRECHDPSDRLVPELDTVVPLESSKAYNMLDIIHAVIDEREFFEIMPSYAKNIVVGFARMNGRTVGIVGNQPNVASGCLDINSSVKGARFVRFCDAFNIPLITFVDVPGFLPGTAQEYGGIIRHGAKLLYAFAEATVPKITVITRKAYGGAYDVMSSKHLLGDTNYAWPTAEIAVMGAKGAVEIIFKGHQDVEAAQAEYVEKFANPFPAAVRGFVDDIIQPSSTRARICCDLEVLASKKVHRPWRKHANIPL
UniProt Q9CPV4: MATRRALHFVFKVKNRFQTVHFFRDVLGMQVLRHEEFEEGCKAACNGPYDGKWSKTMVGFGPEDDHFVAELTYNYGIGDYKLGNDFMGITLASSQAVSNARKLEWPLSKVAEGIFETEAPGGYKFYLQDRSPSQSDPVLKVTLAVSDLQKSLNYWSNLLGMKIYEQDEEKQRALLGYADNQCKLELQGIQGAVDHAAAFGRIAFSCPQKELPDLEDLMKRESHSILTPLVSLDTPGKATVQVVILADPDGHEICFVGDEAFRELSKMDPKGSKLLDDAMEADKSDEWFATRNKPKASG
UniProt Q99N11: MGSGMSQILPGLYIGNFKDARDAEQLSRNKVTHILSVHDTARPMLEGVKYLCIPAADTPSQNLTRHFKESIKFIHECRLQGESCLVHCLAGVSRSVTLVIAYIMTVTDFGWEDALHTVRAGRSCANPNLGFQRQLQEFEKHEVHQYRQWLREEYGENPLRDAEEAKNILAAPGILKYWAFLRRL
UniProt Q99P88: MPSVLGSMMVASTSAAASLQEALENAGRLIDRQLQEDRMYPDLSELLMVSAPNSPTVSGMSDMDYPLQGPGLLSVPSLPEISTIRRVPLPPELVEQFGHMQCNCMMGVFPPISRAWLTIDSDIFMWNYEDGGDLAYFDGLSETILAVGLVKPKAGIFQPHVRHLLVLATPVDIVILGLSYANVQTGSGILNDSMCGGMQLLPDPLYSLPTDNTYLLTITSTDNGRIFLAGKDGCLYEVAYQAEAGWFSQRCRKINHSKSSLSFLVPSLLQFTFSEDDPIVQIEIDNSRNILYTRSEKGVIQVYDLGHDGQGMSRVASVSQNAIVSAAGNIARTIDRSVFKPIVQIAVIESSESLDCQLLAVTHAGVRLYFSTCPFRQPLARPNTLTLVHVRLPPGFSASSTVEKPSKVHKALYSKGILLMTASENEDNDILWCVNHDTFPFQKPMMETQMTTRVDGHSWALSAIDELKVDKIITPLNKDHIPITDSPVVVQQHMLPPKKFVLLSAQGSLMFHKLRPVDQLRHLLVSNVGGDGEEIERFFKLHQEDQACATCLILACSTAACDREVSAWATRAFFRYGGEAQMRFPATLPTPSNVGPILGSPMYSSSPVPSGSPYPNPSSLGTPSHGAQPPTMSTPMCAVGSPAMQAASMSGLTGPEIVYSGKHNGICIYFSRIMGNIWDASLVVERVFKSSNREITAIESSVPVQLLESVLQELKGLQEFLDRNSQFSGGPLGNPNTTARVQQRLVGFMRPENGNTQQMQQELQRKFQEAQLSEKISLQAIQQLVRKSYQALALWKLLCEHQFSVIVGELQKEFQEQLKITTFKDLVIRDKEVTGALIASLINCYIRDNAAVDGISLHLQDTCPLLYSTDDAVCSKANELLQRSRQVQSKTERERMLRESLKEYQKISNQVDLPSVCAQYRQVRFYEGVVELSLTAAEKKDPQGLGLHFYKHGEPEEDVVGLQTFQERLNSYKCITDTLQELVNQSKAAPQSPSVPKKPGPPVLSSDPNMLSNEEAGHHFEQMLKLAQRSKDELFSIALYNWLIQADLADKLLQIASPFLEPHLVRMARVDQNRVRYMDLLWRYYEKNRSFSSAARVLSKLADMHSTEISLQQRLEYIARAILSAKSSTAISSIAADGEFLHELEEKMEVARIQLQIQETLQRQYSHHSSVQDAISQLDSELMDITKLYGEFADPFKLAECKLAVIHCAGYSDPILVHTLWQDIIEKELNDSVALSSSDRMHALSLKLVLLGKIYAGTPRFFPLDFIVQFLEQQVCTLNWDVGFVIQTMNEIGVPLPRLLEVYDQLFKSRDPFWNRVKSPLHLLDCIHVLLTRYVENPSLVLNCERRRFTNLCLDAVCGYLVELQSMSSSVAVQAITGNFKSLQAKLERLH
UniProt Q9CQX0: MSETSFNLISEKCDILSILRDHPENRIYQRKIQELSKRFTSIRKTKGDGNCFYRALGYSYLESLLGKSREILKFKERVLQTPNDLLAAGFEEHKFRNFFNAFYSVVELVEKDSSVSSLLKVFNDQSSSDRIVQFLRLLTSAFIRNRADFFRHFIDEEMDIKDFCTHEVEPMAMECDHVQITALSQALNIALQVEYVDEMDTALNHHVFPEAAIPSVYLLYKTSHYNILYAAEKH
UniProt Q9CQ54: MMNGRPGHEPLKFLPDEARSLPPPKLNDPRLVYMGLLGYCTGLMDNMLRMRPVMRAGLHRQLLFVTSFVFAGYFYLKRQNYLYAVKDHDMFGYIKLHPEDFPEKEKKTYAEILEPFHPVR
UniProt Q9CQN1: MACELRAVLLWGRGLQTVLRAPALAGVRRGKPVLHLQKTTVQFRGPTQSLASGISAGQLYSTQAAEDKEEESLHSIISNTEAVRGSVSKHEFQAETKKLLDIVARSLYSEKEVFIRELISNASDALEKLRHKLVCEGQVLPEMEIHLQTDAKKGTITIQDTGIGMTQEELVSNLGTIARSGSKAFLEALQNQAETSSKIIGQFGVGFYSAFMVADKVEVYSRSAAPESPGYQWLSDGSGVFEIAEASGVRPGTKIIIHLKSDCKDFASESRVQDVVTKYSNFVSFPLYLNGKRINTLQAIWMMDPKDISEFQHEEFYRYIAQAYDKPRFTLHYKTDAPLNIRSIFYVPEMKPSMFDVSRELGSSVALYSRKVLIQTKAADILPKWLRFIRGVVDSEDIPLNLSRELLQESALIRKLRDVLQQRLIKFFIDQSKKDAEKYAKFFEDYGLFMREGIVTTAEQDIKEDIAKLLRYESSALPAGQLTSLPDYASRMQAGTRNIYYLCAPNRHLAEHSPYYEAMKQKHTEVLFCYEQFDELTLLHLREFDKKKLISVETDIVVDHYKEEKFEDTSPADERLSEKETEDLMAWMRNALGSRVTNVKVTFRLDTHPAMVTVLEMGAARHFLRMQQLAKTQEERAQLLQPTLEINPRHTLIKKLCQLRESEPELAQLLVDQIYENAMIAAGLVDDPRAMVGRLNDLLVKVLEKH
UniProt Q9CQ79: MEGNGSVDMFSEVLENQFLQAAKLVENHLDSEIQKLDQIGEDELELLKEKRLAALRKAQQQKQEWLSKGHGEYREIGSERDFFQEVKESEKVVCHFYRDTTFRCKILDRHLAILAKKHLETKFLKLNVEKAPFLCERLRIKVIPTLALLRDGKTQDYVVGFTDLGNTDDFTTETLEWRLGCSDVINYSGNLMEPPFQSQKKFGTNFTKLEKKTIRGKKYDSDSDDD
UniProt Q99LM2: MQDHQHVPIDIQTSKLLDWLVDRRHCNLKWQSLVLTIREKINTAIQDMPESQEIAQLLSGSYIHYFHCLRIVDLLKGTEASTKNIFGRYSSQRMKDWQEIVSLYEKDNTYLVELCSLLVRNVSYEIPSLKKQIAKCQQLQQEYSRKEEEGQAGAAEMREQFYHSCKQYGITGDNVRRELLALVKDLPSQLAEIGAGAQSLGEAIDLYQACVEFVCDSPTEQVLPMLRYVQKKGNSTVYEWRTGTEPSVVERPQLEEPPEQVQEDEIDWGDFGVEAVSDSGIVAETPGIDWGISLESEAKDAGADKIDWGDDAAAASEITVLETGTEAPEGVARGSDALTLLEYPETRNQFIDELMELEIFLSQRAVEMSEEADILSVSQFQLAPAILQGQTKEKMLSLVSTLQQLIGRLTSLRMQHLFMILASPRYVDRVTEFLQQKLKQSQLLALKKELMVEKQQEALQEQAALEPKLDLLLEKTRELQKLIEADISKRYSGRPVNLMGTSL
UniProt Q9CQH3: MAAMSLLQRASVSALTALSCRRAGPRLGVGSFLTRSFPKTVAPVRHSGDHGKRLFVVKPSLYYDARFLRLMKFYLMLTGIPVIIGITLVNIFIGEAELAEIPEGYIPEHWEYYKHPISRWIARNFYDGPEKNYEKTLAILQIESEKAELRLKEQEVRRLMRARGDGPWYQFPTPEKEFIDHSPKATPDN
UniProt Q99PT3, whole entry: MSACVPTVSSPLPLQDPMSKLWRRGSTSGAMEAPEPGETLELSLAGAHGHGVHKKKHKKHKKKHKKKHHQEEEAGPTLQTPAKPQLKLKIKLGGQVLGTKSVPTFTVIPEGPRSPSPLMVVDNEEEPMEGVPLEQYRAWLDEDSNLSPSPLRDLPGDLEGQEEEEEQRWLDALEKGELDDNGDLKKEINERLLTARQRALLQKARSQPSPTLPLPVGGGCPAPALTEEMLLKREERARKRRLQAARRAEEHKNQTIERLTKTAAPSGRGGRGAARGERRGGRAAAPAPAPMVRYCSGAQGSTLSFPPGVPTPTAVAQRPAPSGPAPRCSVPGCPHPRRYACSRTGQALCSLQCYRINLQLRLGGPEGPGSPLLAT
UniProt Q9CQI4: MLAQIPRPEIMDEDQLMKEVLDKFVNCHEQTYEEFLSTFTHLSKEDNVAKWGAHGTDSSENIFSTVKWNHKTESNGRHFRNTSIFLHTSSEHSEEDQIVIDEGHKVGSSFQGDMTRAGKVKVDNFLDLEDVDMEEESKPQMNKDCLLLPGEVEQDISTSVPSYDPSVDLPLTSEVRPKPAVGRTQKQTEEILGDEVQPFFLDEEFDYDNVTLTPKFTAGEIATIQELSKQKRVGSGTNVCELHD
UniProt Q99N20: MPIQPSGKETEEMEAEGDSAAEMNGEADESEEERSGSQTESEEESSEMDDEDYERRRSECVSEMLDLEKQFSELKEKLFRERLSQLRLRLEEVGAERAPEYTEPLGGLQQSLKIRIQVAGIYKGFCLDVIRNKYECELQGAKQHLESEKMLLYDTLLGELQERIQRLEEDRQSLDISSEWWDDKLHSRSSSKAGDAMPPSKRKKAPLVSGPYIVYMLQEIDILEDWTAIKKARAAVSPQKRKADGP
UniProt Q99P58: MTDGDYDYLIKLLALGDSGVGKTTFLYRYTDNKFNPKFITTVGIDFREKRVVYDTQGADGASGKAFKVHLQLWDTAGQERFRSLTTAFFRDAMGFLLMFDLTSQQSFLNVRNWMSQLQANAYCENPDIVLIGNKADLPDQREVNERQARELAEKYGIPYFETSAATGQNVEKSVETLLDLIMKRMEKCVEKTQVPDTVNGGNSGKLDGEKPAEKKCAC
UniProt Q9CR25: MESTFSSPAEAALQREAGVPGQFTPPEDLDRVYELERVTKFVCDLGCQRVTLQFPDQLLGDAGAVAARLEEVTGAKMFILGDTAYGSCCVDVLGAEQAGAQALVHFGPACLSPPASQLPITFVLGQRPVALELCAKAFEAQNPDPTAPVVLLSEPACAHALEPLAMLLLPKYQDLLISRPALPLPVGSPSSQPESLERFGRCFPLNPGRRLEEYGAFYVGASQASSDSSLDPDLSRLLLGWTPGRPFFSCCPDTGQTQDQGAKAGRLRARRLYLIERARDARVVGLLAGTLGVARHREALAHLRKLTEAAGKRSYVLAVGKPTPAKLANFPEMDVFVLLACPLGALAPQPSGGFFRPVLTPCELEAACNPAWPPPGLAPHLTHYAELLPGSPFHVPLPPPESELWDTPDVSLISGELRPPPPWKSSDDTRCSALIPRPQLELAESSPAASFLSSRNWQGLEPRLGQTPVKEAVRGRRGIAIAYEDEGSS
UniProt Q9CQI9: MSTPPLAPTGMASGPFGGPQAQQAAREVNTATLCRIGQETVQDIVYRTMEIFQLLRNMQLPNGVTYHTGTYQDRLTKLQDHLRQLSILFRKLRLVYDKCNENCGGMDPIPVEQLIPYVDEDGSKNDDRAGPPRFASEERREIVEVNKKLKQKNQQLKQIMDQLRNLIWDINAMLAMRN

compound: CN[C@@H]1C[C@H]2O[C@@](C)([C@@H]1OC)n1c3ccccc3c3c4c(c5c6ccccc6n2c5c31)C(=O)NC4 [staurosporine]; assay: log2 fold change of tryptic peptide abundance, ligand vs vehicle (limited proteolysis) (log2 ratio); higher = more trypsin-susceptible (destabilized); conditions: ligand concentration: 20 uM; sample: mouse liver crude lysate; replicate design: treated separately

Target	log2 fold change
UniProt Q99MR1 (peptide sequence: SDSENWR, peptide start residue: 193)	-0.286
UniProt Q99N57 (peptide sequence: AAHTEDINACTLTTSPR, peptide start residue: 628)	-0.165
UniProt Q99N85 (peptide sequence: AGLLPNHRPQLPEGCLPK, peptide start residue: 125)	0.268
UniProt Q9CQI3 (peptide sequence: YQHDDGR, peptide start residue: 75)	0.223
UniProt Q9CPY1 (peptide sequence: MFIEDLHNLNKR, peptide start residue: 102)	0.0558
UniProt Q9CPY4 (peptide sequence: ALVRECLAETER, peptide start residue: 112)	0.137
UniProt Q99MN9 (peptide sequence: GHQDVEAAQAEYVEK, peptide start residue: 477)	-0.116
UniProt Q99N92 (peptide sequence: CLYALEEGIVR, peptide start residue: 88)	-0.402
UniProt Q9CR29 (peptide sequence: VKKEDEVQAIATLIEK, peptide start residue: 92)	0.0666
UniProt Q9CPV4 (peptide sequence: KLEWPLSK, peptide start residue: 102)	-0.527
UniProt Q99N11 (peptide sequence: NILAAPGILK, peptide start residue: 167)	-0.21
UniProt Q99P88 (peptide sequence: LLQIASPFLEPHLVR, peptide start residue: 1052)	0.492
UniProt Q9CQN7 (peptide sequence: LFQLYPK, peptide start residue: 125)	0.247
UniProt Q9CQX0 (peptide sequence: CDILSILR, peptide start residue: 13)	-0.396
UniProt Q9CQ54 (peptide sequence: TYAEILEPFHPVR, peptide start residue: 108)	-0.199
UniProt Q9CQN1 (peptide sequence: SLYSEKEVFIR, peptide start residue: 106)	-0.221
UniProt Q99MB2 (peptide sequence: GIPKPESEATSEPALFGPHILK, peptide start residue: 292)	-0.179
UniProt Q9CQ79 (peptide sequence: VVCHFYR, peptide start residue: 92)	-0.521

Target	log2 fold change
UniProt Q99LM2 (peptide sequence: WQSLVLTIR, peptide start residue: 30)	0.487
UniProt Q9CQH3 (peptide sequence: ARGDGPWYQFPTPEKEFIDHSPK, peptide start residue: 162)	-0.191
UniProt Q99NH0 (peptide sequence: NKENFELQAAQEK, peptide start residue: 1502)	0.547
UniProt Q99LX5 (peptide sequence: APCTGPSREEELAAVR, peptide start residue: 56)	-0.733
UniProt Q99PP7 (peptide sequence: CDPVPAANGAIR, peptide start residue: 463)	0.324
UniProt Q99PT3 (peptide sequence: WLDALEKGELDDNGDLKK, peptide start residue: 169)	-0.521
UniProt Q9CQI4 (peptide sequence: VGSGTNVCELHD, peptide start residue: 233)	-0.144
UniProt Q9CQP0 (peptide sequence: LVSQAGTGFSFNHK, peptide start residue: 20)	-0.13
UniProt Q99M51 (peptide sequence: LYDLNMPAFVK, peptide start residue: 104)	0.24
UniProt Q99N20 (peptide sequence: NKYECELQGAK, peptide start residue: 132)	0.275
UniProt Q99P72 (peptide sequence: HQAQIDHYLGLANK, peptide start residue: 1128)	0.449
UniProt Q99P58 (peptide sequence: SLTTAFFR, peptide start residue: 83)	0.139
UniProt Q9CQ22 (peptide sequence: ALNGAEPNYHSLPSAR, peptide start residue: 32)	-0.0979
UniProt Q9CR25 (peptide sequence: NWQGLEPR, peptide start residue: 456)	-0.0657
UniProt Q9CQ65 (peptide sequence: YVDTPFGKPSDALILGK, peptide start residue: 33)	-0.855
UniProt Q9CQI9 (peptide sequence: EIVEVNKK, peptide start residue: 141)	-0.538
UniProt Q9CQA6 (peptide sequence: PILKPNKPLILANR, peptide start residue: 19)	-0.197
UniProt Q99MJ9 (peptide sequence: KLSSNAVSHVTR, peptide start residue: 608)	0.56

In a second layout: results already given.
UniProt Q9CQX0 (peptide sequence: CDILSILR, peptide start residue: 13)
  log2 fold change: -0.396
UniProt Q9CQ54 (peptide sequence: TYAEILEPFHPVR, peptide start residue: 108)
  log2 fold change: -0.199
